From PubChem BioAssay AID248 (DTP/NCI, 2004)
The list is a part of this screen's results and no random one: it is rich in T/C values a quarter to a half above the control, in often repeated tests (any T/C) and in doses without a T/C. Other doses and runs of a compound stand elsewhere. T/C: endpoint of the treated group in % of that of the vehicle group. Some doses have a count of surviving animals in place of a T/C: the source holds a T/C of zero for them, seemingly a mark for toxic or unscored doses. Some survivor counts are full or nearly so, which does not show that the dose was tolerated: survival well below the control is almost never listed, so the zero probably covers shortened survival too. Survivors were counted at the toxicity check, usually on the fifth day, unless a day is given; later deaths do not show. Schedule codes are those of the source, read here as Q, the interval in days (D) or hours (H), X, the number of doses. Some doses were run more than once; their values stand side by side, smallest first. Marks such as (2×) stand for listed records that agree. For survival time, the PubChem record calls one and a half times the control and up active, and a quarter to a half above the control has no call in these data; cut-offs in other NCI protocols can differ.

System: L1210 leukemia ip in BDF1 mice, survival T/C
Assay: NCI In Vivo Anticancer Drug Screen. Data for tumor model L1210 Leukemia (intraperitoneal) in B6D2F1 (BDF1) mice
Settings: T/C endpoint: mean survival time, higher T/C = longer survival
[1] = dose: 100.0 mg/kg/injection, schedule: Q01DX009 (ip), vehicle: saline with Tween-80
[2] = dose: 400.0 mg/kg/injection, schedule: Q04DX002 (ip), vehicle: saline with Tween-80
[3] = dose: 200.0 mg/kg/injection, schedule: Q01DX001 (ip), vehicle: saline
[4] = dose: 400.0 mg/kg/injection, schedule: Q04DX003 (ip), vehicle: saline with Tween-80
[5] = dose: 400.0 mg/kg/injection, schedule: Q01DX001 (ip), vehicle: saline
[6] = dose: 400.0 mg/kg/injection, schedule: Q01DX009 (ip), vehicle: saline with Tween-80
[7] = dose: 200.0 mg/kg/injection, schedule: Q04DX003 (ip), vehicle: Klucel (hydroxypropylcellulose) (HPC)
[8] = dose: 400.0 mg/kg/injection, schedule: Q04DX003 (ip), vehicle: Klucel (hydroxypropylcellulose) (HPC)
[9] = dose: 100.0 mg/kg/injection, schedule: Q04DX002 (ip), vehicle: saline
[10] = dose: 200.0 mg/kg/injection, schedule: Q04DX002 (ip), vehicle: saline
[11] = dose: 400.0 mg/kg/injection, schedule: Q04DX002 (ip), vehicle: saline
[12] = dose: 100.0 mg/kg/injection, schedule: Q04DX003 (ip), vehicle: saline with Tween-80
[13] = dose: 200.0 mg/kg/injection, schedule: Q04DX003 (ip), vehicle: saline with Tween-80
[14] = dose: 300.0 mg/kg/injection, schedule: Q01DX001 (ip), vehicle: other
[15] = dose: 100.0 mg/kg/injection, schedule: Q01DX001 (ip), vehicle: saline

In the case of `[O-]/[N+](=N/O)c1ccc(Cl)cc1`, the survivor count (dose: 100.0 mg/kg/injection, schedule: Q01DX001 (ip), vehicle: saline with Tween-80) is reported as 3 of 6, the survivor count [1] is reported as 0 of 6 and the survivor count (dose: 200.0 mg/kg/injection, schedule: Q01DX001 (ip), vehicle: saline with Tween-80) is reported as 0 of 6. For the same molecule, the survivor count (dose: 400.0 mg/kg/injection, schedule: Q01DX001 (ip), vehicle: saline with Tween-80) was 0 of 6.

With `CCN(CC)CN(CC)CC` the survivor count (dose: 200.0 mg/kg/injection, schedule: Q04DX002 (ip), vehicle: saline with Tween-80) was 3 of 3 and the survivor count [2] was 0 of 3.

With `CC(=O)C1C(N2CC2)CC2C3CCC4=CC(=O)CCC4(C)C3CCC21C` (centres undefined) the survivor count (dose: 400.0 mg/kg/injection, schedule: Q01DX001 (sc), vehicle: steroid suspending solution) was 2 of 4.

With `CCC(=O)OC(CC=C(C)C)(c1ccccc1)C(C)CN(C)C` (centres undefined) the survivor count (dose: 200.0 mg/kg/injection, schedule: Q01DX009 (ip), vehicle: saline) was 0 of 6 and the survivor count (dose: 400.0 mg/kg/injection, schedule: Q01DX009 (ip), vehicle: saline) was 0 of 6.

With `CCOC(=O)C(O)(CC)c1cc[n+](Cc2cc3ccccc3nc2Cl)cc1C` (centres undefined) the survivor count [3] was 2 of 6.

`OCCCCCCCCCCC[n+]1ccccc1Cc1ccccc1` was tested, and the survivor count (dose: 150.0 mg/kg/injection, schedule: Q01DX001 (ip), vehicle: Klucel (hydroxypropylcellulose) (HPC)) was 0 of 6 and the survivor count (dose: 300.0 mg/kg/injection, schedule: Q01DX001 (ip), vehicle: Klucel (hydroxypropylcellulose) (HPC)) was 0 of 6.

In the case of `CN(C)C=NCCOCc1ccccc1`, the survivor count (dose: 400.0 mg/kg/injection, schedule: Q04DX003 (ip), vehicle: saline) is reported as 0 of 6.

In the case of `C=CC(=O)NCNC(C)C` (tested in a mixture with another compound), the survivor count (dose: 50.0 mg/kg/injection, schedule: Q01DX009 (ip), vehicle: saline) is reported as 0 of 3.

`CCOC(=O)C(=O)Nc1cc(C)ccc1C` was tested, and the survivor count [4] was 6 of 6.

With `O=S(=O)(Cl)OO/C=C\OOS(=O)(=O)Cl` the survivor count [5] was 0 of 6.

With `CCCNc1ccc(S(=O)(=O)c2ccc(N)cc2)cc1` the survivor count [1] was 6 of 6, the survivor count (dose: 200.0 mg/kg/injection, schedule: Q01DX009 (ip), vehicle: saline with Tween-80) was 6 of 6 and the survivor count [6] was 6 of 6.

For `NC(=O)N/N=C1/CCN2CCCc3cccc1c32`, the survivor count (dose: 100.0 mg/kg/injection, schedule: Q04DX003 (ip), vehicle: Klucel (hydroxypropylcellulose) (HPC)) was 3 of 6, the survivor count [7] was 0 of 6 and the survivor count [8] was 0 of 6.

For `NCC12CC3CC(CC(C3)C1)C2`, the survivor count (dose: 200.0 mg/kg/injection, schedule: Q04DX002 (ip), vehicle: Klucel (hydroxypropylcellulose) (HPC)) was 0 of 3 and the survivor count (dose: 400.0 mg/kg/injection, schedule: Q04DX002 (ip), vehicle: Klucel (hydroxypropylcellulose) (HPC)) was 0 of 3.

In the case of `Cn1c2ccccc2[n+]2c(N)scc12`, the survivor count [9] is reported as 2 of 3, the survivor count [10] is reported as 0 of 3 and 2 of 3 and the survivor count [11] is reported as 0 of 3.

For `c1cc2c(c(NC3=NCCCO3)c1)CCCC2`, the survivor count [12] was 1 of 6, the survivor count [13] was 0 of 6 and the survivor count [4] was 0 of 6.

With `O=C(c1ccc(Cl)cc1)c1cccc[n+]1Cc1ccccc1` the survivor count (dose: 150.0 mg/kg/injection, schedule: Q01DX009 (ip), vehicle: Klucel (hydroxypropylcellulose) (HPC)) was 3 of 6, the survivor count [7] was 0 of 6 and the survivor count (dose: 225.0 mg/kg/injection, schedule: Q01DX009 (ip), vehicle: Klucel (hydroxypropylcellulose) (HPC)) was 0 of 6. For the same molecule, the survivor count (dose: 335.0 mg/kg/injection, schedule: Q01DX009 (ip), vehicle: Klucel (hydroxypropylcellulose) (HPC)) was 0 of 6 and the survivor count [8] was 0 of 6.

For `CCNCc1cc(Nc2cc(C)nc(/N=C(\N)Nc3ccc(Cl)c(Cl)c3)n2)ccc1OC`, the survivor count (dose: 150.0 mg/kg/injection, schedule: Q01DX001 (ip), vehicle: other) was 2 of 6, the survivor count (dose: 150.0 mg/kg/injection, schedule: Q04DX003 (ip), vehicle: Klucel (hydroxypropylcellulose) (HPC)) was 3 of 6 and the survivor count (dose: 225.0 mg/kg/injection, schedule: Q04DX003 (ip), vehicle: Klucel (hydroxypropylcellulose) (HPC)) was 2 of 6. The survivor count [14] was 0 of 6 and the survivor count (dose: 340.0 mg/kg/injection, schedule: Q04DX003 (ip), vehicle: Klucel (hydroxypropylcellulose) (HPC)) was 1 of 6.

With `CCc1cc(O)c(Cl)c(C)c1Cl` the survivor count (dose: 200.0 mg/kg/injection, schedule: Q01DX009 (ip), vehicle: gum acacia) was 5 of 6.

With `CC(C)CC(NC(=O)OCc1ccccc1)C(=O)NCCCCCCNCCCCCCNC(=O)C(CC(C)C)NC(=O)OCc1ccccc1` (centres undefined) the survivor count [15] was 2 of 4 and the survivor count [5] was 0 of 4.

In the case of `O=C(COc1ccccc1)NC(=S)Nc1ccc(F)c([N+](=O)[O-])c1`, the survivor count [6] is reported as 3 of 3.

For `N=C(N)SCc1ccccc1Cl`, the T/C (dose: 12.5 mg/kg/injection, schedule: Q04DX002 (ip), vehicle: saline) was 144 % of control, the survivor count [9] was 1 of 3 and the survivor count [10] was 0 of 3. The survivor count [11] was 0 of 3.

With `CSc1cc(C)[o+]c(C)c1` the survivor count [5] was 1 of 4 and the survivor count (dose: 400.0 mg/kg/injection, schedule: Q01DX009 (ip), vehicle: Klucel (hydroxypropylcellulose) (HPC)) was 0 of 10.

In the case of `CCCCCCCCCCCC[Si](Cl)(Cl)Cl`, the survivor count (dose: 150.0 mg/kg/injection, schedule: Q01DX001 (ip), vehicle: saline) is reported as 1 of 6 and the survivor count (dose: 300.0 mg/kg/injection, schedule: Q01DX001 (ip), vehicle: saline) is reported as 2 of 6.

For `CCCCCCCCCCCCP(=O)(O)O`, the survivor count [14] was 0 of 6.

In the case of `CCC(O)C[As](=O)(O)c1ccccc1Cl` (centres undefined), the survivor count (dose: 25.0 mg/kg/injection, schedule: Q04DX003 (ip), vehicle: saline with Tween-80) is reported as 0 of 6, the survivor count (dose: 50.0 mg/kg/injection, schedule: Q04DX003 (ip), vehicle: saline with Tween-80) is reported as 0 of 6 and the survivor count [12] is reported as 0 of 6 (2×). For the same molecule, the survivor count [13] was 0 of 6 and the survivor count [4] was 0 of 6.

In the case of `Cc1ccc2c(c1)N(CCCN1CC[N+](C)(C)CC1)c1ccccc1S2`, the survivor count [15] is reported as 0 of 4, the survivor count [3] is reported as 0 of 4 and the survivor count [5] is reported as 0 of 4.

`CC(C)=CCc1c2c(c3occ(-c4ccc(O)cc4)c(=O)c3c1O)C=CC(C)(C)O2` was tested, and the survivor count [7] was 6 of 6.

`Nc1ncc(Br)c2ccccc12` was tested, and the survivor count [4] was 0 of 6.

With `NC(=O)N/N=C\C=N/NC(N)=O` the survivor count (dose: 400.0 mg/kg/injection, schedule: Q01DX001 (ip), vehicle: Klucel (hydroxypropylcellulose) (HPC)) was 3 of 3.

`Cc1nn(C)c(C#N)c1[N+](=O)[O-]` was tested, and the survivor count [8] was 6 of 6.

`CC(C)c1ccc(/C=N\NC(=O)N/N=C/c2ccc(C(C)C)cc2)cc1` was tested, and the survivor count [8] was 6 of 6.

With `CC1CCNC(C(C)C)CC1` (centres undefined) the survivor count [11] was 0 of 3.

In the case of `COC1OC(COC(C)=O)C(OC(C)=O)C(OC(C)=O)[CH]1[Hg][S]c1ccccc1` (centres undefined), the survivor count (dose: 32.0 mg/kg/injection, schedule: Q01DX015 (ip), vehicle: carboxymethylcellulose (CMC)) is reported as 0 of 6.

`Cc1ccc(NC(=O)CC#N)c(C)c1` was tested, and the survivor count [2] was 1 of 3.
